Laboratory results: PubChem BioAssay AID1224830 (NIAID, 2016)

Test: 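Regulators of TLR4 signalling towards TNF-alpha in macrophage-like cells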 (primary screen)
Cell system: human THP-1 monocytic leukaemia cells, TNF dual-luciferase reporter clone, PMA-differentiated to macrophage-like cells
Reagents: siRNA pool against human genes, 50 nM
Duration: LPS for 4 h, given about 3 days after siRNA transfection
Conditions: bacterial LPS (TLR4 ligand), 10 ng/ml
Measured: 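TNF firefly reporter luminescence divided by renilla, normalised to the plate median, then turned into a robust z-score for each replicate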
Scale: TNF reporter robust z-score: higher = stronger TNF reporter response to LPS
Active means: 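Each well counts as active if its z-score is over 2.8 or under -1.5; controls are left without a call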
Here is a random part of about 18,000 deposited reagents. Over the whole deposit, about 2,900 (16%) are marked active. 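Calls are made per well; low scores hint the gene aids the LPS response, high scores that it dampens it.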 Repeated entries: four replicate wells of each siRNA pool.

target gene	TNF reporter robust z-score	call
CLMN	-0.79	inactive
CLMN	-0.54	inactive
CLMN	-0.21	inactive
CLMN	-0.3	inactive
SERPINA10	-0.19	inactive
SERPINA10	0.36	inactive
SERPINA10	-0.21	inactive
SERPINA10	-1.27	inactive
PNLIPRP2	-0.51	inactive
PNLIPRP2	-0.62	inactive
PNLIPRP2	-0.13	inactive
PNLIPRP2	-0.48	inactive
CYLC1	2.03	inactive
CYLC1	-0.3	inactive
CYLC1	1.11	inactive
CYLC1	2.09	inactive
EPHA3	-0.25	inactive
EPHA3	-0.3	inactive
EPHA3	0.34	inactive
EPHA3	-1.2	inactive
RELL2	-0.79	inactive
RELL2	-0.42	inactive
RELL2	-0.28	inactive
RELL2	-0.25	inactive
BDH2	1.91	inactive
BDH2	3.29	active
BDH2	2.12	inactive
BDH2	2.84	active
ITPRID1	0.51	inactive
ITPRID1	-0.77	inactive
ITPRID1	0.26	inactive
ITPRID1	0.05	inactive
NDUFA2	-1.35	inactive
NDUFA2	-1.05	inactive
NDUFA2	-0.72	inactive
NDUFA2	0	inactive
ZNF833P	-0.77	inactive
ZNF833P	0.19	inactive
ZNF833P	-0.82	inactive
ZNF833P	0.88	inactive
MYO1B	-1.07	inactive
MYO1B	-0.99	inactive
MYO1B	-1.18	inactive
MYO1B	-0.82	inactive
CD47	-0.5	inactive
CD47	-0.53	inactive
CD47	-0.52	inactive
CD47	-0.3	inactive
TMEM201	-0.24	inactive
TMEM201	-0.5	inactive
TMEM201	-0.35	inactive
TMEM201	-0.44	inactive
SP8	0.64	inactive
SP8	1.04	inactive
SP8	0.94	inactive
SP8	0.13	inactive
DEFB4A	-0.04	inactive
DEFB4A	1.43	inactive
DEFB4A	0.25	inactive
DEFB4A	-0.07	inactive
BEND3	1.36	inactive
BEND3	1.57	inactive
BEND3	-0.75	inactive
BEND3	0.08	inactive
ATP7A	-1.03	inactive
ATP7A	-0.6	inactive
ATP7A	0.22	inactive
ATP7A	-0.15	inactive
ALDH16A1	0.3	inactive
ALDH16A1	-0.31	inactive
ALDH16A1	1.49	inactive
ALDH16A1	0.21	inactive
ARF5	-0.89	inactive
ARF5	-1.05	inactive
ARF5	-1.16	inactive
ARF5	-1.34	inactive

10 consecutive entries from above, quoted:
target gene	TNF reporter robust z-score	call
EPHA3	0.34	inactive
EPHA3	-1.2	inactive
RELL2	-0.79	inactive
RELL2	-0.42	inactive
RELL2	-0.28	inactive
RELL2	-0.25	inactive
BDH2	1.91	inactive
BDH2	3.29	active
BDH2	2.12	inactive
BDH2	2.84	active
